Assay: general procedure: Boc solid-phase peptide synthesis; benzhydrylamine resin
Conditions: whole synthesis, scale 1.0 mmol

Substance: L-Asn-L-Gln-L-Glu-L-Gln-L-Val-L-Ser-L-Pro-L-Leu-L-Thr-L-Gly-L-Leu-L-Lys-NH
- crude mass: 623 mg
- isolated mass: 130 mg

Source: patent US4487718A (Kowa Company, Ltd., priority 1983, dated 1984)
